Assay results taken from the supplement of paper PMC3334620.
Over roughly 33,000 sequences, “E-score (-0.5 to 0.5)” has its median near -8e-05; the highest 2% begin near 0.23. The list shows a part of the results.

biological target: T1, Nrg2 (UniProt P38082); experiment: PBM E-score (8-mer binding enrichment) (E-score (-0.5 to 0.5)); higher = stronger / more preferred TF binding; settings: protein concentration: 100 nM; construct: GST-full length
T1 sequence: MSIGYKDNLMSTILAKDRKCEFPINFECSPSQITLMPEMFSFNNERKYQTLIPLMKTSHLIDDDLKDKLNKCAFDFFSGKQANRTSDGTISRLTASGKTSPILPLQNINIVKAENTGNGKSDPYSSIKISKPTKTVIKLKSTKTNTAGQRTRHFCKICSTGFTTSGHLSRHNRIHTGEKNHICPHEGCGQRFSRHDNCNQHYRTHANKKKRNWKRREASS
Method in brief: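 For each ungapped eight-base word taken together with its reverse complement, the Universal PBM Analysis Suite assigned an E-score. Binding data came from GST-tagged yeast transcription factors, applied at about 100-200 nM, on universal all-10-mer Agilent arrays made double-stranded by primer extension. Fluorescent anti-GST marked bound protein, and scans were normalised with masliner.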

Row | Sequence | PBM E-score
1 | ACTGTAAG | 0.0693
2 | ACTTAAAT | -0.0858
3 | CGCCCACC | -0.0493
4 | TCGTAGCA | 0.109
5 | GTGTTAAC | -0.0395
6 | TATAGTGA | -0.122
7 | GGAGAGAC | -0.179
8 | ATAAAGAT | 0.0728
9 | GCCCTACA | 0.021
10 | ACTTAGAC | 0.0437
11 | AGCTTGTA | -0.00311
12 | CTATGCGC | 0.2
13 | AGCTCCTA | -0.176
14 | TCTGATCA | -0.00902
15 | GAGGGCTA | -0.252
16 | GAGCATCA | -0.112
17 | TCTCGCAA | -0.0499
18 | GCTTTTCC | -0.0446
19 | AGTAAGCA | -0.203
20 | CAACCTTC | 0.00135
21 | ACTTTGAT | -0.0142
22 | GAGTGTTA | 0.00753
23 | AAAGTACA | 0.121
24 | ACATCCAC | -0.0593
25 | AGCCGTCC | 0.00267

Row | Sequence | PBM E-score
26 | GGTGCTGA | -0.16
27 | AATGGTAC | -0.0589
28 | AAAAATAG | 0.0397
29 | ACGGTGCT | -0.23
30 | CGGCAAGA | 0.00707
31 | CCGGGTCG | -0.0464
32 | GGCACTAA | 0.134
33 | AGGATGAT | 0.0595
34 | ACCGGATG | -0.0549
35 | GGCATCCC | -0.253
36 | GGCTCAGA | 0.0626
37 | CGACGCGA | -0.0343
38 | ACTAGCAA | 0.0254
39 | CGTGGTGA | -0.282
40 | CCACACAA | 0.0363
41 | CATCCAGA | -0.127
42 | ACCCGATA | -0.0189
43 | AGCCCACT | -0.0594
44 | CGGCGCGA | 0.121
45 | CCACGCCA | -0.0242
46 | GCTGGTAC | -0.177
47 | ACGCGGAC | 0.0191
48 | CTTGTAGC | 0.132
49 | AGCCCCCT | -0.3
50 | GTCGTAGA | 0.0343

Row | Sequence | PBM E-score
51 | AATTTATC | 0.312
52 | AGTAAAGA | 0.13
53 | ACCTGGAC | -0.137
54 | AATCGGAG | 0.105
55 | CTAGATAC | 0.147
56 | AAAACTAT | 0.0045
57 | CAAGACAA | 0.127
58 | GGGTGCCA | 0.0209
59 | TGCTCCCA | -0.0553
60 | AGCCACCG | -0.196
61 | CTAGGTCC | 0.0627
62 | GAACACCC | -0.128
63 | GCGACAGA | 0.238
64 | CTACAAAA | 0.0553
65 | GCAGCTGA | 0.0488
66 | AATCTTTG | 0.0327
67 | AGGTAAAA | -0.00652
68 | TTGTACAA | 0.0871
69 | GAAGTCGA | 0.139
70 | AACTGTTG | -0.00214
71 | GATTCCCC | -0.148
72 | ATGGTTTG | 0.0204
73 | AAGCCGCA | -0.0098
74 | ATAGCAGA | 0.0143
75 | GCTCTCAA | 0.047

Row | Sequence | PBM E-score
76 | AGCCAAGC | -0.156
77 | CTGGTACA | -0.0315
78 | GGGGACTA | -0.0994
79 | GGGAACCA | -0.231
80 | GAAAGGCC | -0.0594
81 | CAAAACAG | 0.0581
82 | CCTTACTC | 0.138
83 | AGGCGGAT | 0.0209
84 | GCGGTGGA | 0.136
85 | CACTTCTC | -0.0526
86 | ATTGCGAC | 0.198
87 | CGGCTGAG | -0.0583
88 | CTCCCGAG | -0.218
89 | AGCTTATC | -0.0335
90 | CGAGTGCA | 0.0846
91 | CTCGTAAG | 0.0943
92 | GCATGTAC | 0.0645
93 | GGTGAGCA | -0.223
94 | CATAGCAA | 0.0247
95 | CGGTACCA | -0.18
96 | CTTTACGA | -0.192
97 | ATATTAAA | 0.29
98 | CCTGAAGC | -0.221
99 | TGTTAAAA | -0.0704
100 | AAAAAGGA | 0.0662

Row | Sequence | PBM E-score
101 | TAAGGTGA | -0.0318
102 | AAGTCCTG | -0.0665
103 | ACGCAGGC | -0.201
104 | CGAAGTAG | 0.0892
105 | CCTAGGCA | -0.0703
106 | CAGTAAAC | -0.0747
107 | ATGTACTG | 0.0724
108 | ACGTTAGC | 0.0712
109 | CTCAGGTA | -0.0666
110 | ACGGCTCC | -0.0024
111 | GAGGCCTC | -0.327
112 | ACAACGAC | -0.0262
113 | ATTAATAC | 0.223
114 | ACGATCTC | -0.0267
115 | ATACGGAC | -0.0987
116 | AAGAAAAC | 0.0677
117 | ATATCGAA | 0.211
118 | CTATGTCC | 0.0087
119 | CCTGGTTC | -0.00734
120 | AAGGTTCT | 0.0402
121 | CAGACGTC | -0.243
122 | CAGAAATC | 0.0356
123 | CGCGAATA | 0.183
124 | ACCCACAG | -0.111
125 | CGATTTTA | 0.194

Row | Sequence | PBM E-score
126 | CCGTGAAC | -0.021
127 | ACGATTTC | 0.0712
128 | AGATCGAT | 0.139
129 | AGAAAATC | 0.0379
130 | CAGCGGGA | 0.0638
131 | AGTCTCTG | -0.193
132 | ATCAAGTC | 0.0581
133 | ACACACCG | -0.115
134 | AGGAAAAA | -0.101
135 | TATTAGAA | 0.249
136 | ACCCTAAA | 0.161
137 | GCCGCAAA | 0.157
138 | GTATACTA | -0.0179
139 | GCAGGTAC | -0.17
140 | ACCATGGG | -0.0447
141 | CCCATGGG | 0.323
142 | AGAAGCAT | 0.0357
143 | AATACCTA | 0.144
144 | TCAAGAAA | 0.145
145 | CGTAATGC | -0.023
146 | AAAGCGAT | 0.0772
147 | CGCTACAG | -0.103
148 | ATGCTACC | 0.0188
149 | TCCGGTAA | -0.0902
150 | CACCAAGG | -0.0415

Row | Sequence | PBM E-score
151 | GAGAAAAA | 0.0431
152 | ATTCGATA | 0.0763
153 | CAAGACGC | -0.0198
154 | GGAAAAAA | -0.11
155 | AATCCCGA | 0.193
156 | ATAATGCA | 0.0348
157 | ATAGTTCA | 0.0512
158 | ACATTTCA | 0.0192
159 | GCCGGAAC | -0.00319
160 | AGTTGCAT | 0.165
161 | ACACCCGG | -0.141
162 | CGTGGAAA | 0.173
163 | ACAGCAAA | 0.0135
164 | ACATACAT | 0.212
165 | CTTGCTCA | -0.151
166 | AATATGGG | -0.0279
167 | AGAGCATA | -0.0894
168 | CGCAGCAC | -0.0909
169 | GCTCGGAC | -0.0396
170 | ATTCTTGC | 0.0743
171 | CGTCTGCC | -0.155
172 | GTCCACAC | 0.101

Pulled one by one from above (7):
Row | Sequence | PBM E-score
163 | ACAGCAAA | 0.0135
151 | GAGAAAAA | 0.0431
156 | ATAATGCA | 0.0348
159 | GCCGGAAC | -0.00319
165 | CTTGCTCA | -0.151
153 | CAAGACGC | -0.0198
171 | CGTCTGCC | -0.155
